## Results from one PubChem assay

Data taken from PubChem BioAssay AID1080, deposited by Emory University Molecular Libraries Screening Center (2008).

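A counter-screen in EP4-overexpressing cells measuring cyclic AMP with a time-resolved FRET kit under weak PGE2 stimulation. Compounds were tested at 20 µM final. A low (about EC15) PGE2 dose was present. Percent cAMP induction as a fraction of the 1 µM PGE2 response, averaged over three replicates; a higher value means more cAMP.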

Values are in %. Common to all entries: measured here: EP4 receptor counter-screen. This is a side read-out of the assay, for part of the compounds, not drawn at random.

compound	condition	cAMP induction (%)
Cc1ccccc1/C=C/c1nc2ccccc2c(=O)n1CCc1ccccc1	percent of 1 uM PGE2 response; plus low (about EC15) PGE2 agonist	6.333
Cc1ccc2c(c1)N(S(=O)(=O)c1ccc(F)cc1)C(C(C)(C)C)CO2 (stereo not shown)	percent of 1 uM PGE2 response; plus low (about EC15) PGE2 agonist	7.78
Cn1c(/C=C/N(Cc2ccccc2)c2ccccc2)c([N+](=O)[O-])c(=O)n(C)c1=O	percent of 1 uM PGE2 response; plus low (about EC15) PGE2 agonist	6.4
O=S1(=O)CCN(Cc2cccc(Cl)c2)CC1	percent of 1 uM PGE2 response; plus low (about EC15) PGE2 agonist	11.31
O=C(OCC(=O)N1N=C(c2ccc(Cl)cc2)CC1c1ccco1)c1ccco1 (stereo not shown)	percent of 1 uM PGE2 response; plus low (about EC15) PGE2 agonist	3.017
COc1ccc(CSC2=C(C#N)C(=O)NC3(CCCCC3)S2)cc1	percent of 1 uM PGE2 response; plus low (about EC15) PGE2 agonist	-0.6567
CCOP(=O)(OCC)c1nc(/C=C/c2ccccc2)oc1NCc1ccccc1	percent of 1 uM PGE2 response; plus low (about EC15) PGE2 agonist	-12.63
CC(C)Cc1nc(SCc2cccnc2)c2c(=O)n(C)c(=O)n(C)c2n1	percent of 1 uM PGE2 response; plus low (about EC15) PGE2 agonist	-21.87
COC(=O)c1ccc(-c2ccco2)n1Cc1ccccc1Cl	percent of 1 uM PGE2 response; plus low (about EC15) PGE2 agonist	14.76
Cc1ccc(-c2nnc(N3CCC(C)CC3)c3ccccc23)cc1	percent of 1 uM PGE2 response; plus low (about EC15) PGE2 agonist	-7.7
CC(C)n1c2ccccc2c2nnc(SCC(=O)Nc3ccccc3C(=O)O)nc21	percent of 1 uM PGE2 response; plus low (about EC15) PGE2 agonist	35.01
CCn1c(=NC(=O)c2ccc(S(=O)(=O)N(C)C)cc2)sc2cccc(OC)c21	percent of 1 uM PGE2 response; plus low (about EC15) PGE2 agonist	19.12
O=S(=O)(c1ccccc1)N(Cc1nc(-c2ccccc2)no1)C1CCCCC1	percent of 1 uM PGE2 response; plus low (about EC15) PGE2 agonist	-0.2933
Cc1ccc2c(c1)N(Cc1cccc(Cl)c1)C(=O)c1cccnc1O2	percent of 1 uM PGE2 response; plus low (about EC15) PGE2 agonist	-3.307
O=C(N/N=C/c1ccc[nH]1)c1ccccc1OCc1ccccc1Cl	percent of 1 uM PGE2 response; plus low (about EC15) PGE2 agonist	4.13
CC(=O)NC(c1ccccc1)c1cccnc1 (stereo not shown)	percent of 1 uM PGE2 response; plus low (about EC15) PGE2 agonist	-15.18
Cc1ccc(NCc2ccccc2OCc2ccccc2F)cc1	percent of 1 uM PGE2 response; plus low (about EC15) PGE2 agonist	-12.07
CC1=CC(C)(C)N(C(=O)c2ccccc2)c2ccccc21	percent of 1 uM PGE2 response; plus low (about EC15) PGE2 agonist	-1.883
CC1Cc2ccccc2N1CC(=O)NC(c1ccccc1)c1ccccc1 (stereo not shown)	percent of 1 uM PGE2 response; plus low (about EC15) PGE2 agonist	-8.227
CCCCn1c(=O)c(C(=O)NCc2ccco2)c(O)c2ccccc21	-	5.92